The other results are listed elsewhere or left out. Residues, ends and D or L forms follow the SMILES beside them. *: point of attachment. Cbz = O=C(OCc1ccccc1)*
Columns and labels:
Assay in all cases: log2 fold change, soluble protein after heating vs DMSO (PISA); higher = thermal stabilisation; K562 cells, 10 uM, 30 min; active = over 0.2 and 3.5 SD of the protein, either way, in both replicates (recomputed)
[1] = compound: C#Cc1cccc(Nc2ncnc3cc(OCCOC)c(OCCOC)cc23)c1 [erlotinib]
Summary of the method: (§1)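 For each measurement, 10 μM compound was applied for 30 min to K562 cells at 2×10^6 cells/mL. Aliquots were heated for 3 min across 48°C-58°C, pooled, and extracted in PBS with 0.5% NP-40 at 4°C; the supernatant after 21,000xg for 90 min was soluble protein. This was quantified by TMTpro 16plex LC-MS/MS with channel sums equalised, and thermal stability was reported relative to control samples from duplicates, on a log2 fold-change scale.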

By UniProt entry, the sequences of proteins in these tests, tags left out. Where a name states a change or a piece, a line headed by the entry shows the natural chain unless it says otherwise.
UniProt Q9NYU1: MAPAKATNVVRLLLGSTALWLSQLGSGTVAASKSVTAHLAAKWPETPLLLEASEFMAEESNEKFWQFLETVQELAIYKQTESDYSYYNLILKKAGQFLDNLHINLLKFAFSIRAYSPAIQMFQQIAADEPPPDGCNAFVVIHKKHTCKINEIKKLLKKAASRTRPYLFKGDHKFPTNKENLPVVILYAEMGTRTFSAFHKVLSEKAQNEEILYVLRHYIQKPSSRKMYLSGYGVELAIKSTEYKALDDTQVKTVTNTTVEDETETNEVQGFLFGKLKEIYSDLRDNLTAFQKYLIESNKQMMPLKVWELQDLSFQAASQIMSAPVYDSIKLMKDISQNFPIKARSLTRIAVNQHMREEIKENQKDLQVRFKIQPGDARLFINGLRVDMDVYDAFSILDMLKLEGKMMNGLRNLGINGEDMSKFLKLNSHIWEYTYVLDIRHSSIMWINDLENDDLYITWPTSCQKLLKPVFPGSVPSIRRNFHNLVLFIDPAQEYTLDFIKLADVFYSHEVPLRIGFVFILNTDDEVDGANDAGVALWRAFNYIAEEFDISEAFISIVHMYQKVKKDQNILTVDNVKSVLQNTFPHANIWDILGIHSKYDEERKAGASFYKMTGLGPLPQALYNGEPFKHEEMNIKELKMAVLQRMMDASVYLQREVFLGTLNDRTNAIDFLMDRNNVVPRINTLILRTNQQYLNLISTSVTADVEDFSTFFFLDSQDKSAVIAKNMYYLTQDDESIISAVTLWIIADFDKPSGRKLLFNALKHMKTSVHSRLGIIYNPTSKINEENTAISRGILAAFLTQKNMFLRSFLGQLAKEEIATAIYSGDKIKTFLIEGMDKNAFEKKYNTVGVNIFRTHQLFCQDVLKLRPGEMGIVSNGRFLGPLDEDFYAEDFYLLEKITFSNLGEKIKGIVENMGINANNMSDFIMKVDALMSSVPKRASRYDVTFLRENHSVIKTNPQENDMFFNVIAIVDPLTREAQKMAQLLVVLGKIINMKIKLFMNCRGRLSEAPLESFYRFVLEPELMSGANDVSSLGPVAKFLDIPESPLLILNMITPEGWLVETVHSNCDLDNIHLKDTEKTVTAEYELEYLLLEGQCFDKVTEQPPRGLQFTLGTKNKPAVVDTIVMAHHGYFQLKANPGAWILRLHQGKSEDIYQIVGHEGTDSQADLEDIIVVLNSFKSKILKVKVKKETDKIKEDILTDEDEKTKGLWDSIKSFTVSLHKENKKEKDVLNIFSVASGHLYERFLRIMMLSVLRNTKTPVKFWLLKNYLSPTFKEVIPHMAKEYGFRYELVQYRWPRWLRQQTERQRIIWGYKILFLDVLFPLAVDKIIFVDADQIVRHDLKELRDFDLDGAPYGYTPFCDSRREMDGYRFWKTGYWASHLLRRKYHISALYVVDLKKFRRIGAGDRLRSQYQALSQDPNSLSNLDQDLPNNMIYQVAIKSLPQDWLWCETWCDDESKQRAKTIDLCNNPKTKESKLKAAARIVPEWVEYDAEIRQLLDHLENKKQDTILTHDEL
UniProt P61758, whole entry, looked up: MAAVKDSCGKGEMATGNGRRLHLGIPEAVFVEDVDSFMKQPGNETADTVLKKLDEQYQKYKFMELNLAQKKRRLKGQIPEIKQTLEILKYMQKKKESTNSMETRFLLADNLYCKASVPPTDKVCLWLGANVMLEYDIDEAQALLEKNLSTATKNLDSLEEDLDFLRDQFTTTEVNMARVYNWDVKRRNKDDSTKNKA
UniProt P63027, whole entry, looked up: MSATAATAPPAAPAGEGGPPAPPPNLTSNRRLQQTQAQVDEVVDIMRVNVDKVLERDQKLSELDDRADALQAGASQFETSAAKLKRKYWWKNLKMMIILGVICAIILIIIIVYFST
UniProt Q96K76: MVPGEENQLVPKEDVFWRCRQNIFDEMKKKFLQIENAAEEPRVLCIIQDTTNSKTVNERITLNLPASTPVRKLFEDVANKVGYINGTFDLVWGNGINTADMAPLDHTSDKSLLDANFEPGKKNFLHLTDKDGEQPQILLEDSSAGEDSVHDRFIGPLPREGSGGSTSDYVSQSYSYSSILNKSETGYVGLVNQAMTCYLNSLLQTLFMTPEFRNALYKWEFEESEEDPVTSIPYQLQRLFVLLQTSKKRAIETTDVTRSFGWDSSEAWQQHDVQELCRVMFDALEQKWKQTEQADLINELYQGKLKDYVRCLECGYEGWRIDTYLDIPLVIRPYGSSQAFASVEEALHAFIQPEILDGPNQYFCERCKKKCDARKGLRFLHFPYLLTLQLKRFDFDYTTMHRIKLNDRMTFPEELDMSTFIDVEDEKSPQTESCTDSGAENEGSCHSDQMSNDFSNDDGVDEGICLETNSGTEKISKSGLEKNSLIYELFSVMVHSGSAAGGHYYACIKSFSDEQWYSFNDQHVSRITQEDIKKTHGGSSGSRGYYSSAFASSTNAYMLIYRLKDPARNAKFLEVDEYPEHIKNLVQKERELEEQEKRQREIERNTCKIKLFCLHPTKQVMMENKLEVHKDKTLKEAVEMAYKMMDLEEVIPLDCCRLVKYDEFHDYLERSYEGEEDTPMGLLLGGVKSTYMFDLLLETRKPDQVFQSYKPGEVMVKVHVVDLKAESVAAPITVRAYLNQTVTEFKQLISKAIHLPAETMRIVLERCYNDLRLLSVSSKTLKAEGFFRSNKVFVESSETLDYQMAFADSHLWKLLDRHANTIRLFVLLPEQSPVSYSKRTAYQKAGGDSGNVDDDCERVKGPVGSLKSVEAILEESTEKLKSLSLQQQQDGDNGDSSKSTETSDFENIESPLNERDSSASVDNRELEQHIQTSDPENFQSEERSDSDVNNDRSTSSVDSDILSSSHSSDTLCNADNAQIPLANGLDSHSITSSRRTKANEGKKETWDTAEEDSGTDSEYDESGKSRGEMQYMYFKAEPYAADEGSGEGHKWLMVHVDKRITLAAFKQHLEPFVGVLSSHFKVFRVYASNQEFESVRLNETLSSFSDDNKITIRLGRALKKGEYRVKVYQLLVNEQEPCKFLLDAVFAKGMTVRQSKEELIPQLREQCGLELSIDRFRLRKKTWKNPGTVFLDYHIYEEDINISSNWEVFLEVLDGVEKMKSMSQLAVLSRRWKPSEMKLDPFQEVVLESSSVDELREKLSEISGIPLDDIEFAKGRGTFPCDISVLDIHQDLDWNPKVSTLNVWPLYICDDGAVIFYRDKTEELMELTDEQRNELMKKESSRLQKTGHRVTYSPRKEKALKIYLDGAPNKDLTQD
UniProt P18206: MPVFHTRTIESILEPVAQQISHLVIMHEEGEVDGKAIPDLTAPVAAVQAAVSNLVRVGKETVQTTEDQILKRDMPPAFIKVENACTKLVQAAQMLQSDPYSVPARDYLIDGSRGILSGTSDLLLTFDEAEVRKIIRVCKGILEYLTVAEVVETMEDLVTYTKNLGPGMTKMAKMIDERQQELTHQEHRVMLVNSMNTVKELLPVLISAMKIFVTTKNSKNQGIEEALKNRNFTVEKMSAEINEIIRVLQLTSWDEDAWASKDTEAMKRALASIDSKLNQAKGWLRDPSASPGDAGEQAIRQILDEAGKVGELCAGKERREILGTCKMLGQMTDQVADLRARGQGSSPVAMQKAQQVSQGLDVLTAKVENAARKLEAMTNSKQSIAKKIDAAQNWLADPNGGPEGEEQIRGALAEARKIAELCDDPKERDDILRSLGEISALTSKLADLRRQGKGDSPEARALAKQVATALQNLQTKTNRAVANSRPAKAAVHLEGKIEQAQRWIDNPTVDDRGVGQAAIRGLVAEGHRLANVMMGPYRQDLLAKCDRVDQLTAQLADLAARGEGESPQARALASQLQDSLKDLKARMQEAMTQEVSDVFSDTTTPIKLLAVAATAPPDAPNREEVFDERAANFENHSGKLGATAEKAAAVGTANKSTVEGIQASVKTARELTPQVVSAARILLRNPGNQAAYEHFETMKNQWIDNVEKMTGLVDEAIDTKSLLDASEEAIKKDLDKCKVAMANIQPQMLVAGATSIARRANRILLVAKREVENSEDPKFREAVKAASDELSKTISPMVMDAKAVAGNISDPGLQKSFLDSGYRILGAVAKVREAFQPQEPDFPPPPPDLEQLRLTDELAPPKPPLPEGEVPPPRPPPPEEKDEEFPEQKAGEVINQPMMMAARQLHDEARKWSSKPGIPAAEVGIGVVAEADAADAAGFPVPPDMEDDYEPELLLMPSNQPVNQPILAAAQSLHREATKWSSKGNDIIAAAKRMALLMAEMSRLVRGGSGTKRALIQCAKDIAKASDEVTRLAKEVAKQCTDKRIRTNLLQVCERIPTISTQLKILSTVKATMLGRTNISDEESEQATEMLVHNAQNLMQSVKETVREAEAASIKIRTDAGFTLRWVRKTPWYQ
UniProt P10746: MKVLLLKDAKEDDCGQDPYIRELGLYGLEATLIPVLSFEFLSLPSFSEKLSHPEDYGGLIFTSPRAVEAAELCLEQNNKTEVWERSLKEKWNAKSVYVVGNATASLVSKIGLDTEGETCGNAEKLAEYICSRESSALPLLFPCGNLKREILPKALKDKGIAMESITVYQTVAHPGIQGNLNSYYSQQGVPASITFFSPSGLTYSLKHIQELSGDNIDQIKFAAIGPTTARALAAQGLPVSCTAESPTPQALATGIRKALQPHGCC
UniProt Q92575: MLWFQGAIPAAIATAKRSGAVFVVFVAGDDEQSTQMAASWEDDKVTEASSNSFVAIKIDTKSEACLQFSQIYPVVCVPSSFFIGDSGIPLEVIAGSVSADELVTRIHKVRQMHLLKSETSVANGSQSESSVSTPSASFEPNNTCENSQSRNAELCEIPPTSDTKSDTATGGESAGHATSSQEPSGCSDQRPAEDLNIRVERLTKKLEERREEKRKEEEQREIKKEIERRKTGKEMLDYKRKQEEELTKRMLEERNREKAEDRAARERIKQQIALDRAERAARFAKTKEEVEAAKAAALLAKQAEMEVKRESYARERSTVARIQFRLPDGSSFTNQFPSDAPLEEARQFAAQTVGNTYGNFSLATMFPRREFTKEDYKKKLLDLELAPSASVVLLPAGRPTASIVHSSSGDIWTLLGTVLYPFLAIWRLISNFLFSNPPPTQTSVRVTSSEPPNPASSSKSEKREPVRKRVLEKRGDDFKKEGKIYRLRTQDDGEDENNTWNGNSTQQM
UniProt P07919: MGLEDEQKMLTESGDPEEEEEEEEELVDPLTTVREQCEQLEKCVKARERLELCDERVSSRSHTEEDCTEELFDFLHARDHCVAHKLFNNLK
UniProt Q16880: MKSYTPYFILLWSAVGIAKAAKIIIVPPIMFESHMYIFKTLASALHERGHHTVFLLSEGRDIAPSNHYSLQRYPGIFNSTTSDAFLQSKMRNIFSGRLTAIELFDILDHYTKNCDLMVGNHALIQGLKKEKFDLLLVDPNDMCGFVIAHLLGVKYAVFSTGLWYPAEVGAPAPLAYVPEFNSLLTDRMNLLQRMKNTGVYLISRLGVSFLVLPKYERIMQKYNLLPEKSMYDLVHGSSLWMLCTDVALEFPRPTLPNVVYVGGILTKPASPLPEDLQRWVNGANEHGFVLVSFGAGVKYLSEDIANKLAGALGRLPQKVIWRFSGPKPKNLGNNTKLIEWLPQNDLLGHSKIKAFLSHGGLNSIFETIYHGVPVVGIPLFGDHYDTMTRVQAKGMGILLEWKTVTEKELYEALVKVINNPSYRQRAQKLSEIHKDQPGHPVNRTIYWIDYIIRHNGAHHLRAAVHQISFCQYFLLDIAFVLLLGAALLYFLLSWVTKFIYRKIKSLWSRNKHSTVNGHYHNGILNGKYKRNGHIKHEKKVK
UniProt Q14694, whole entry, looked up: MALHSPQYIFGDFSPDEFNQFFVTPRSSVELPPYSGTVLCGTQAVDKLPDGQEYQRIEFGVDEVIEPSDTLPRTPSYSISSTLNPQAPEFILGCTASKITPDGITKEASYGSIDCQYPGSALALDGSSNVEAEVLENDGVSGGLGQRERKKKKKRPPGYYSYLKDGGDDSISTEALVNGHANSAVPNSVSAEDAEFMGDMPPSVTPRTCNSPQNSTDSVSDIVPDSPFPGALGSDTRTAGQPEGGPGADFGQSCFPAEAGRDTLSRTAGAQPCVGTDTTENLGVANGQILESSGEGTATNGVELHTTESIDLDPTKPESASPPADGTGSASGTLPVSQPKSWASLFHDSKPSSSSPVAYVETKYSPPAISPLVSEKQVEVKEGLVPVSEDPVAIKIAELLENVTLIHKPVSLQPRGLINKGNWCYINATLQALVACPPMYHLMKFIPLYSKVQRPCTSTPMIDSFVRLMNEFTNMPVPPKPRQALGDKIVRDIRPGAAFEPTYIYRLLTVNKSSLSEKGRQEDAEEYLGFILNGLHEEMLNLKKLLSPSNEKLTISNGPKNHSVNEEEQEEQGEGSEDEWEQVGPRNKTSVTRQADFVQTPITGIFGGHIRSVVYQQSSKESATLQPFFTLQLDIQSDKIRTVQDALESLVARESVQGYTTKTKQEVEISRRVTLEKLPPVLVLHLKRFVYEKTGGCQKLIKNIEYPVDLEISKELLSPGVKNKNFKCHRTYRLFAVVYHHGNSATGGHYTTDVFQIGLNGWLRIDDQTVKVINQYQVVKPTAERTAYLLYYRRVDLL

[2] = compound: C/C(=N\NC(=O)C1=CC(=CC=C1)S(=O)(=O)N2CCOCC2)/C3=C(C=CC(=C3)Cl)O
Summary of the method: as §1

[3] = compound: C1=CC(=C(C=C1Cl)C2=NC3=NC=CN=C3C(=N2)NC4=CC=NC=C4)F
Summary of the method: as §1

[4] = compound: C1=CC(=CC=C1C2=NC3=C(N2)C=C(C=C3)C(=O)N)OC4=CC=C(C=C4)Cl
Summary of the method: as §1

[5] = compound: C1=CC2=C(C=CC(=C2)/C=C\3/C(=O)NC(=NCC4=CC=CS4)S3)N=C1
Summary of the method: as §1

[6] = compound: C1=CC2=NC=CN=C2C=C1/C=C/3\C(=O)NC(=O)S3
Summary of the method: as §1

[7] = compound: C1=CC=C(C=C1)C2=NC(=C(N2)C3=CC=NC=C3)C4=CC(=C(C=C4)Cl)O
Summary of the method: as §1

[8] = compound: C1=CC=C2C(=C1)C3=NNC4=CC=CC(=C43)C2=O
Summary of the method: as §1

[9] = compound: C1CCN(C1)C(=O)NC2=CC=CC(=C2)NC3=NC=C(C(=N3)NCCC4=CN=CN4)Br
Summary of the method: as §1

[10] = compound: C1CN(CCC1(CC2=CC=C(C=C2)Cl)N)C3=NC=NC4=C3C=CN4
Summary of the method: as §1

[11] = compound: C1COCCN1CCN2C3=CC=CC=C3N=C2NC(=O)C4=CC(=CC=C4)[N+](=O)[O-] [IRAK-1-4 Inhibitor I]
Summary of the method: as §1

[12] = compound: C=CC(=O)N1CCC[C@@H](n2nc(-c3ccc(Oc4ccccc4)cc3)c3c(N)ncnc32)C1 [ibrutinib]
Summary of the method: as §1

[13] = compound: CC(=O)c1cnc2ccc(-c3cc(Cl)c(O)c(Cl)c3)nc2c1N[C@H]1CC[C@H](CN(C)C)CC1
Summary of the method: as §1

[14] = compound: CC(C)(C)Cn1c(N)nc2ccc(-c3[nH]c(C(C)(C)C)nc3-c3ccc(F)cc3)nc21 [ralimetinib]
Summary of the method: as §1

[15] = compound: CC(C)(O)CC(=O)NCCn1ccc2ncnc(Nc3ccc(Oc4cccc(C(F)(F)F)c4)c(Cl)c3)c21
Summary of the method: as §1

[16] = compound: CC(C)C1=C2N=C(C=C(N2N=C1)NCC3=CC=CC=C3)NCCCCCCN
Summary of the method: as §1

[17] = compound: CC(C)C[C@@H](C=O)NC(=O)[C@H](CC(C)C)NC(=O)[C@H](CC(C)C)NC(=O)OCc1ccccc1
Summary of the method: as §1

[18] = compound: CC(C)N(C[C@H]1O[C@@H](n2cnc3c(N)ncnc32)[C@H](O)[C@@H]1O)[C@H]1C[C@@H](CCc2nc3cc(C(C)(C)C)ccc3[nH]2)C1 [pinometostat]
Summary of the method: as §1

[19] = compound: CC1=C(C(CC(=O)N1)C2=CC=C(C=C2)C(F)(F)F)C(=O)NC3=C(C=C4C(=C3)C=NN4)F
Summary of the method: as §1

[20] = compound: CC1=C(C2=C(C=C1)C(=O)C3=CC=CC=C3N2CCCN)C
Summary of the method: as §1

Measured: log2 fold change

UBXN7 (UniProt O94888)
inactive: [1] 0.032 | [2] 0.051 | [3] 0.046 | [4] 0.037 | [5] 0.028 | [6] 0.006 | [7] -0.021 | [8] -0.023 | [9] -0.009 | [10] 0.029 | [11] 0.058 | [12] -0.001 | [13] 0.001 | [14] -0.029 | [15] -0.018 | [16] 0.015 | [17] 0.015 | [18] 0.008 | [19] -0.002 | [20] -0.056

UMPS (UniProt P11172)
inactive: [1] 0.044 | [2] 0 | [3] 0.068 | [4] 0.008 | [5] 0.032 | [6] 0.012 | [7] 0.046 | [8] -0.01 | [9] -0.011 | [10] 0.021 | [11] 0.004 | [12] 0.015 | [13] 0.007 | [14] -0.033 | [15] -0.069 | [16] 0.032 | [17] -0.033 | [18] -0.042 | [19] -0.008 | [20] 0.007

UGGT2 (UniProt Q9NYU1)
inactive: [1] -0.017 | [2] -0.062 | [3] -0.029 | [4] -0.025 | [5] 0.166 | [6] 0.009 | [7] 0.002 | [8] 0.017 | [9] 0.081 | [10] -0.222 | [11] -0.091 | [12] -0.031 | [13] -0.033 | [14] 0.018 | [15] -0.013 | [16] 0.005 | [17] -0.024 | [18] -0.017 | [19] 0.008 | [20] -0.035

UBE3C (UniProt Q15386)
inactive: [1] 0.007 | [2] 0.028 | [3] -0.021 | [4] 0.005 | [5] 0.038 | [6] -0.002 | [7] 0.018 | [8] -0.02 | [9] -0.014 | [10] 0.057 | [11] 0.019 | [12] 0.006 | [13] -0.031 | [14] 0.012 | [15] -0.086 | [16] -0.012 | [17] 0.027 | [18] 0.013 | [19] -0.034 | [20] 0.034

VBP1 (UniProt P61758)
inactive: [1] 0.001 | [2] -0.012 | [3] 0.025 | [4] -0.007 | [5] -0.051 | [6] -0.003 | [7] -0.048 | [8] -0.003 | [9] 0.029 | [10] 0.032 | [11] 0.055 | [12] -0.004 | [13] 0 | [14] -0.04 | [15] 0.004 | [16] 0.069 | [17] 0.016 | [18] -0.015 | [19] 0.01 | [20] -0.029

VAMP2 (UniProt P63027)
inactive: [1] -0.042 | [2] 0.198 | [3] 0.08 | [4] -0.034 | [5] -0.125 | [6] 0.044 | [7] 0.035 | [8] 0.085 | [9] -0.201 | [10] -0.001 | [11] 0.072 | [12] 0.051 | [13] 0.064 | [14] 0.02 | [15] -0.044 | [16] -0.063 | [17] -0.001 | [18] -0.1 | [19] 0.022 | [20] 0.036

VARS (UniProt P26640)
inactive: [1] -0.04 | [2] 0.052 | [3] -0.002 | [4] -0.003 | [5] 0.036 | [6] 0.005 | [7] 0.049 | [8] 0.014 | [9] 0.017 | [10] -0.049 | [11] -0.038 | [12] -0.01 | [13] 0.05 | [14] 0.056 | [15] -0.026 | [16] -0.078 | [17] 0.016 | [18] 0.032 | [19] 0.004 | [20] 0.044

USP47 (UniProt Q96K76)
inactive: [1] 0.002 | [2] 0.034 | [3] -0.125 | [4] 0.034 | [5] 0.039 | [6] -0.044 | [7] -0.015 | [8] 0 | [9] -0.05 | [10] -0.124 | [11] -0.087 | [12] -0.004 | [13] 0.031 | [14] 0.085 | [15] 0.005 | [16] -0.307 | [17] 0.009 | [18] 0.222 | [19] 0.045 | [20] 0.029

VCL (UniProt P18206)
inactive: [1] 0.009 | [2] -0.014 | [3] 0.066 | [4] -0.009 | [5] -0.042 | [6] 0.023 | [7] 0.031 | [8] -0.016 | [9] 0.004 | [10] 0.049 | [11] 0.015 | [12] -0.017 | [13] 0.017 | [14] -0.012 | [15] 0.025 | [16] 0.057 | [17] -0.017 | [18] -0.067 | [19] 0.024 | [20] -0.013

UBXN1 (UniProt Q04323)
inactive: [1] 0.023 | [2] 0.033 | [3] 0.082 | [4] -0.026 | [5] 0.046 | [6] 0.05 | [7] -0.028 | [8] -0.001 | [9] -0.004 | [10] -0.009 | [11] 0.015 | [12] -0.028 | [13] -0.003 | [14] -0.036 | [15] -0.028 | [16] -0.047 | [17] 0.056 | [18] 0.003 | [19] 0.002 | [20] 0.046

USP1 (UniProt O94782)
inactive: [1] -0.053 | [2] 0.089 | [3] -0.066 | [4] 0.17 | [5] 0.11 | [6] 0.039 | [7] -0.159 | [8] 0.074 | [9] -0.019 | [10] 0.006 | [11] -0.029 | [12] 0.04 | [13] -0.154 | [14] 0.022 | [15] -0.037 | [16] -0.066 | [17] 0.25 | [18] 0.116 | [19] 0.092 | [20] -0.245

UROS (UniProt P10746)
inactive: [1] -0.011 | [2] 0.1 | [3] 0.049 | [4] -0.046 | [5] -0.075 | [6] 0.01 | [7] -0.038 | [8] 0.002 | [9] -0.071 | [10] 0.011 | [11] 0.096 | [12] -0.042 | [13] -0.011 | [14] 0.013 | [15] -0.038 | [16] -0.014 | [17] 0.053 | [18] 0.062 | [19] -0.031 | [20] 0.041

2 consecutive records out of the list so far, for reference:
UBXN1 (UniProt Q04323)
inactive: [1] 0.023 | [2] 0.033 | [3] 0.082 | [4] -0.026 | [5] 0.046 | [6] 0.05 | [7] -0.028 | [8] -0.001 | [9] -0.004 | [10] -0.009 | [11] 0.015 | [12] -0.028 | [13] -0.003 | [14] -0.036 | [15] -0.028 | [16] -0.047 | [17] 0.056 | [18] 0.003 | [19] 0.002 | [20] 0.046

USP1 (UniProt O94782)
inactive: [1] -0.053 | [2] 0.089 | [3] -0.066 | [4] 0.17 | [5] 0.11 | [6] 0.039 | [7] -0.159 | [8] 0.074 | [9] -0.019 | [10] 0.006 | [11] -0.029 | [12] 0.04 | [13] -0.154 | [14] 0.022 | [15] -0.037 | [16] -0.066 | [17] 0.25 | [18] 0.116 | [19] 0.092 | [20] -0.245

Remaining list, next part:

UBXN4 (UniProt Q92575)
inactive: [1] 0.023 | [2] -0.009 | [3] 0.035 | [4] 0.024 | [5] 0.01 | [6] 0.049 | [7] 0.053 | [8] 0.008 | [9] -0.016 | [10] 0.025 | [11] -0.024 | [12] -0.011 | [13] -0.009 | [14] -0.031 | [15] -0.087 | [16] -0.091 | [17] -0.039 | [18] 0.177 | [19] 0.007 | [20] 0.046

UQCRH (UniProt P07919)
inactive: [1] 0.034 | [2] -0.082 | [3] 0.051 | [4] -0.067 | [5] 0.071 | [6] 0.05 | [7] -0.048 | [8] -0.095 | [9] 0.036 | [10] -0.027 | [11] -0.063 | [12] 0.024 | [13] -0.015 | [14] -0.068 | [15] -0.003 | [16] 0.082 | [17] -0.005 | [18] -0.051 | [19] 0.148 | [20] -0.035

UGT8 (UniProt Q16880)
inactive: [1] -0.027 | [2] 0.009 | [3] -0.057 | [4] -0.076 | [5] -0.078 | [6] -0.124 | [7] 0.241 | [8] -0.098 | [9] -0.019 | [10] -0.036 | [11] -0.043 | [12] 0.014 | [13] 0.04 | [14] 0.088 | [15] 0.323 | [16] 0.178 | [17] -0.011 | [18] 0.106 | [19] -0.138 | [20] 0.054

USP10 isoform 2 (UniProt Q14694)
inactive: [1] -0.038 | [2] 0.051 | [3] -0.124 | [4] 0.034 | [5] 0.003 | [6] 0.039 | [7] -0.004 | [8] -0.057 | [9] 0.039 | [10] -0.013 | [11] -0.067 | [12] 0.04 | [13] -0.002 | [14] 0.062 | [15] 0.059 | [16] -0.015 | [17] 0.097 | [18] 0.033 | [19] -0.004 | [20] -0.042
